Laboratory results taken from paper PMC7819943, “Rice protein-binding microarrays: a tool to detect cis-acting elements near promoter regions in rice”.
This is one part of the list.

By UniProt entry, the sequences of proteins in these tests, tags left out.
UniProt Q0JBA9, entry or part of it: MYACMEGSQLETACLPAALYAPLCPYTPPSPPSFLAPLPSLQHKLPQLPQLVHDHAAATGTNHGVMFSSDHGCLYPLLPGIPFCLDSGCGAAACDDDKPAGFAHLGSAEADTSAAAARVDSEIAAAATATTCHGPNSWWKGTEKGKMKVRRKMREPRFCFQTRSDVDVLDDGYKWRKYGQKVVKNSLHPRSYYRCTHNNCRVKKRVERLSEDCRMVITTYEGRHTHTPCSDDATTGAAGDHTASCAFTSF

target: OsWRKY34 (Oryza sativa, UniProt Q0JBA9 1-250); experiment: protein-binding microarray (RPBM); PBS, 2% BSA, 51.3 ng/ul salmon testes DNA, 50 uM zinc acetate, 200 nM TF, 25 C, 1 h; high values mean tight binding; settings: protein: recombinant; tags: N-terminal polyhistidine and DsRed monomer fusion (pET32a); label: CyDye5-dUTP incorporated in the synthesized complementary strand; 3' TTTTT single-stranded linker to array surface; dsDNA, one strand shown
Summary of the method: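 For the binding signal, per-feature fluorescence intensity was read in arbitrary units on an Axon 4000B scanner. Before scanning, a 2% BSA-blocked custom Agilent array made double-stranded with Cy5-dUTP was washed after 1 h at 25 °C with 200 nM protein and 50 µM zinc acetate. The proteins were Ni–NTA-purified transcription factors with N-terminal polyhistidine and DsRed fusions, expressed in E. coli BL21-CodonPlus.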

Sequence	binding signal
CACGTTGCCGTCTCATCTCACCACCAGCATCAACACAAAACGGAGTCACCTAGTGCAG	9340 fluorescence intensity (a.u.)
GCCCCGCCCCGCCCATCTTGTCAGATCCTTCTTCATAGTTCGGAGTCACCTAGTGCAG	8890 fluorescence intensity (a.u.)
GCAACCTCAGGATGCTCCACGAGCTTTCTCTTAGCTACAACGGAGTCACCTAGTGCAG	17000 fluorescence intensity (a.u.)
ATATTATCTACGTGGACACTTTCATTGATTAATGTATTTCCGGAGTCACCTAGTGCAG	10300 fluorescence intensity (a.u.)
ACTAGTTGGGGTGTATAAGGTATGAGTATGATATATATGGCGGAGTCACCTAGTGCAG	9480 fluorescence intensity (a.u.)
TGGCGCTTTCTGTGATTCTTTCCAAATCGGCACATAAATTCGGAGTCACCTAGTGCAG	8810 fluorescence intensity (a.u.)
CTGTTCACTTAGCCGCATCCAGCGCCGGGCACCTTCTCCGCGGAGTCACCTAGTGCAG	9920 fluorescence intensity (a.u.)
TCTGTTCTGGTGGATGCTTTAAAGTCAACTGTCTATGATCCGGAGTCACCTAGTGCAG	10300 fluorescence intensity (a.u.)
CCGCCACGCCATCCCGTGCTCCTAACCATATTGTCTCTCTCGGAGTCACCTAGTGCAG	10200 fluorescence intensity (a.u.)
CAAACACGCATTAAAAAGTCAACGGTGTCAAATATTTTGACGGAGTCACCTAGTGCAG	10400 fluorescence intensity (a.u.)
TTTTCAGTAGATAACATCGTTGACTTTTCAACGAATATTTCGGAGTCACCTAGTGCAG	14400 fluorescence intensity (a.u.)
TGATTCGTGTCTTCGTGAGTCGTGACCACGGGAGGGGAGGCGGAGTCACCTAGTGCAG	9410 fluorescence intensity (a.u.)
AATTAGGTTTCCATTGGAATTTTTTTCATGCTGACAATTCCGGAGTCACCTAGTGCAG	8030 fluorescence intensity (a.u.)
ACCGTTTTTCTTGCAATGGTTGTTGTTGGGTTGATCTTGCCGGAGTCACCTAGTGCAG	8600 fluorescence intensity (a.u.)
ACCTTAATTTTCTCGGTTTTATTTTCTGCCTGAGCTTATTCGGAGTCACCTAGTGCAG	9360 fluorescence intensity (a.u.)
ATTCAGGTGCTTTACTCAAGTTTGTTAGGTTGTGTTCCTTCGGAGTCACCTAGTGCAG	12300 fluorescence intensity (a.u.)
TAGGGGTCTTTTCCATGTTTCCTCGGGATCAATTTCGGTTCGGAGTCACCTAGTGCAG	9390 fluorescence intensity (a.u.)
ATTTTGTTCTTTTTTTTTTCCTTTTCTATTTCTGGACTTTCGGAGTCACCTAGTGCAG	10500 fluorescence intensity (a.u.)
ATCTATCACTACCGAAAGCCGGGCGGGGCGAAACTGCAAACGGAGTCACCTAGTGCAG	8460 fluorescence intensity (a.u.)
ATCGATTTTTCTATACGGTCATCTTAAGTCGACCACACGGCGGAGTCACCTAGTGCAG	8450 fluorescence intensity (a.u.)
TTCATGCTTCATTCTGTATTGTTTTTTTTTTTTTGAAAAACGGAGTCACCTAGTGCAG	8420 fluorescence intensity (a.u.)

Sequence	binding signal
AGTTGTGTACTTGTGTTGCCGCAACTTTTAGTTCTTTGCTCGGAGTCACCTAGTGCAG	8790 fluorescence intensity (a.u.)
ATCCGATGTTTGTTAATTTGATGCGGTTTAGCTGGCAGCTCGGAGTCACCTAGTGCAG	9040 fluorescence intensity (a.u.)
CATCAGATCACTCGCTCTCCTCTTATTCCTTGTCCCAACTCGGAGTCACCTAGTGCAG	9440 fluorescence intensity (a.u.)
CTTTTGTGCTCATCTGAACTTCTGAAGTATCATAAAGAAGCGGAGTCACCTAGTGCAG	31400 fluorescence intensity (a.u.)
GAAACTTTCCTACGCACAAACTTTCAACTTTTACGTCACACGGAGTCACCTAGTGCAG	8680 fluorescence intensity (a.u.)
AGGTTTCTTTCTTGTGTTCATTGCTTTTTTATGCTCAATGCGGAGTCACCTAGTGCAG	8750 fluorescence intensity (a.u.)
ACACATTGACCGGCCCAATTATTCTCTGCTTGTTTGGCCCCGGAGTCACCTAGTGCAG	13700 fluorescence intensity (a.u.)
ATATGGAAGATTCTGTACTCATGGTGGTTTTTCTTTTTTTCGGAGTCACCTAGTGCAG	8510 fluorescence intensity (a.u.)
GCCTTCCGTTCCGCTCCTCTACCGCCGCGTCAAGATTCCCCGGAGTCACCTAGTGCAG	8440 fluorescence intensity (a.u.)
TTCTCTCTCAATTTTACATTGCATTTTCTTGTAAGTTACACGGAGTCACCTAGTGCAG	9000 fluorescence intensity (a.u.)
AGCACTCCGCCCATCCCCGCGGCTGGCCTCGTCCGTCGCCCGGAGTCACCTAGTGCAG	9210 fluorescence intensity (a.u.)
GGGACATGAGAATTTTGGTGGAATGGGGATGGGGAATTGACGGAGTCACCTAGTGCAG	12400 fluorescence intensity (a.u.)
CATTTTCTTATAATTAATTAAGTATTTGCTATTTTTTTTACGGAGTCACCTAGTGCAG	9060 fluorescence intensity (a.u.)
CATTTTACCATGTGTTCATTTGTTCAACCAGGACCATGTACGGAGTCACCTAGTGCAG	8380 fluorescence intensity (a.u.)
TGAAGCATGAACGTTTTGCATTGCTTGTCACCTGCCTATACGGAGTCACCTAGTGCAG	8160 fluorescence intensity (a.u.)
CTCCCTACTACTCGGTTTCTGTCAGATCTCCGGCGAGCATCGGAGTCACCTAGTGCAG	10000 fluorescence intensity (a.u.)
ACGACCTGTTCTAATGACCCTGCATCTTGACTGAAGCCACCGGAGTCACCTAGTGCAG	8080 fluorescence intensity (a.u.)
TAGTGTTGGTTTGATTTTTATATCACTAGAGATGAACTAACGGAGTCACCTAGTGCAG	8560 fluorescence intensity (a.u.)
ACGCTAGCATCACTGCATCTGCACACACTGCACTTGCCTTCGGAGTCACCTAGTGCAG	9970 fluorescence intensity (a.u.)
TGGGTGGGAGGGTAGTTATGTACTTTCGCGTCTATTCCGCCGGAGTCACCTAGTGCAG	14100 fluorescence intensity (a.u.)
TCTGGAAACCTTTTTCTCTTTGCTGACACCATTCTTGTTCCGGAGTCACCTAGTGCAG	8420 fluorescence intensity (a.u.)

Sequence	binding signal
ACCGCCACTGACAACCGGGCCCCACCACACACCCGGCCCCCGGAGTCACCTAGTGCAG	8840 fluorescence intensity (a.u.)
CGACAACGCACTCCGTCACTCCTACGATGAATATACCGCCCGGAGTCACCTAGTGCAG	8750 fluorescence intensity (a.u.)
CTTATCGCTCTTTGCTAGTTAGCGCTAATTCTCTTTAGCTCGGAGTCACCTAGTGCAG	10900 fluorescence intensity (a.u.)
GGGTCCCACGTACTTTTTTGCCTTTTGTTTTATTATAATGCGGAGTCACCTAGTGCAG	8120 fluorescence intensity (a.u.)
TCTGTTACTCGATGCTATAATTGCCGCTATGGTCTTTGAACGGAGTCACCTAGTGCAG	10200 fluorescence intensity (a.u.)
ACGGCCTCTCACCTCGTCTCGACCCATCGGAGCCACCACTCGGAGTCACCTAGTGCAG	10300 fluorescence intensity (a.u.)
GATTTGCACTACTCTACACACTGCAGAGTCACAAGATCACCGGAGTCACCTAGTGCAG	8090 fluorescence intensity (a.u.)
GTTTCATCCATATCCTAATCTGGTAGTTTGAGCCTTTTGACGGAGTCACCTAGTGCAG	8140 fluorescence intensity (a.u.)
TAATAAATCACTTGTGGCTATTGTGTTTGTTACTTTACTTCGGAGTCACCTAGTGCAG	8230 fluorescence intensity (a.u.)
TTGGTTAGGTACAGTGTTTGGTGTGGATGTGTATAGATTTCGGAGTCACCTAGTGCAG	8500 fluorescence intensity (a.u.)
TATGGCTTCTCACCTCGGTTGATTGATTTTTGATCGATCCCGGAGTCACCTAGTGCAG	8170 fluorescence intensity (a.u.)
CTCACAGACCAACACATGTCTTTTCTGCACACTTTGTCCTCGGAGTCACCTAGTGCAG	9260 fluorescence intensity (a.u.)
CCCTAGCCGCGACCATTCCTCTGCCTGCTCTCCTCCTCTCCGGAGTCACCTAGTGCAG	9330 fluorescence intensity (a.u.)
GGAAAGCCTATGGTGCGCCAGATGGTGTACACGCCCGTGTCGGAGTCACCTAGTGCAG	8140 fluorescence intensity (a.u.)
CTCCATTCCTCAATGTTATGTGGACCTGAACTCACATGTCCGGAGTCACCTAGTGCAG	8360 fluorescence intensity (a.u.)
AATTATGGCCGCATTTATGTTGTCGGTATCACCCGTATCACGGAGTCACCTAGTGCAG	8640 fluorescence intensity (a.u.)
TATTTGCTACCAATCCACTTCTCTCTTTCTCTTCCATTTCCGGAGTCACCTAGTGCAG	9120 fluorescence intensity (a.u.)
TTCCTCACCTTGCCACTGTCGGTTCTTGCCTCTTTCTTTGCGGAGTCACCTAGTGCAG	13900 fluorescence intensity (a.u.)
AACATTTCCTCTGAGTCTATCTCTCTCATCTGATTCTTGCCGGAGTCACCTAGTGCAG	8800 fluorescence intensity (a.u.)
CAATTCTAGGTTTTTAACACTATTATCCGATATCCCTACTCGGAGTCACCTAGTGCAG	8880 fluorescence intensity (a.u.)
GTGGCTTGATCTCTAGTTAATTACCTCCTCCCATATATGACGGAGTCACCTAGTGCAG	8400 fluorescence intensity (a.u.)

Sequence	binding signal
TTCTTCTTGGCTGCTGTGCTGGTGGTCGTCGCCATGGCGTCGGAGTCACCTAGTGCAG	10200 fluorescence intensity (a.u.)
CTCTTGTTGTTGTGTTCCTTACTGATACTTTGCTAAGTATCGGAGTCACCTAGTGCAG	9080 fluorescence intensity (a.u.)
GAGTTATCCTCACCACCCACCGCTCGTCGCCTCCACTCCGCGGAGTCACCTAGTGCAG	8120 fluorescence intensity (a.u.)
CTAAACAAAACACATCACACGTCACGTTCAATCAAACTCACGGAGTCACCTAGTGCAG	9150 fluorescence intensity (a.u.)
CACGATGTACGTTCTTGTTCCTTCCACCTGTCTGCTATTTCGGAGTCACCTAGTGCAG	11100 fluorescence intensity (a.u.)
GAACCACATGCGGGCCATTTCTTTGATCGTCACCAAAAGCCGGAGTCACCTAGTGCAG	8320 fluorescence intensity (a.u.)
CCCTCTTCCTCGTTTTCTGCGCGCACGTTTTTCGAACTGCCGGAGTCACCTAGTGCAG	8610 fluorescence intensity (a.u.)
CTACACCCGTCTCGATCTTTCGCTCAATTCCGCTTTAATTCGGAGTCACCTAGTGCAG	14700 fluorescence intensity (a.u.)
CTACTGTTTGCAGCTGGGTTTTGGTTTGATCCATGGTTTTCGGAGTCACCTAGTGCAG	8310 fluorescence intensity (a.u.)
TGGGTTAATTGGGTTGGGTGGGCCGCTGCCTATGTGGCGGCGGAGTCACCTAGTGCAG	14800 fluorescence intensity (a.u.)
GGTTGCTTTATTTACACTATTAGTTAGCCCTAATATTATTCGGAGTCACCTAGTGCAG	10700 fluorescence intensity (a.u.)
CTTTTCTTTTGTTAGTTTTTTGTTTTTCTATCAAACTAATCGGAGTCACCTAGTGCAG	8370 fluorescence intensity (a.u.)
GTTAGTCCACTCAATACACTCATTGCCTCATCATCGTGTCCGGAGTCACCTAGTGCAG	9450 fluorescence intensity (a.u.)
TCGCTTTCAGAATTAGTTTGGTTGGGGTGAAATTTCTTGGCGGAGTCACCTAGTGCAG	9020 fluorescence intensity (a.u.)
TCCACGAGTACTTGTACTCCTATACTACTCCATTTGTTTTCGGAGTCACCTAGTGCAG	9560 fluorescence intensity (a.u.)
CAGACAAAGGGTGTGTTTAGTTGACGTCAAAATTGTAAGTCGGAGTCACCTAGTGCAG	8760 fluorescence intensity (a.u.)
TACTGAATCACACCTTTTGTTTCTTCCAGCACTGTACTCTCGGAGTCACCTAGTGCAG	9870 fluorescence intensity (a.u.)
TAAACCTAACTTAACCACCTACTACTTCAGCTAAAGCTTACGGAGTCACCTAGTGCAG	8360 fluorescence intensity (a.u.)
CATAACCATTAGCATCGCACTCAGGGGCGGGCCCACTATTCGGAGTCACCTAGTGCAG	10400 fluorescence intensity (a.u.)
GTATTAAACTCGCTCAAGTAACTCCTGCACACCGCAGTCACGGAGTCACCTAGTGCAG	8630 fluorescence intensity (a.u.)
TTTTTCATCCGACAATTGAAAAGGGCTATAATTTCTTTTTCGGAGTCACCTAGTGCAG	8590 fluorescence intensity (a.u.)
